Assay results from PMC11574364.
The exact form of at least one protein or probe is not confirmed. For some of these results: Where a protein sequence is shown, tags need not be part of it.

Amino acid sequences for entries named in this document (tags omitted). A change or cut given only in a name is not applied to a line headed by its entry.
UniProt P15309: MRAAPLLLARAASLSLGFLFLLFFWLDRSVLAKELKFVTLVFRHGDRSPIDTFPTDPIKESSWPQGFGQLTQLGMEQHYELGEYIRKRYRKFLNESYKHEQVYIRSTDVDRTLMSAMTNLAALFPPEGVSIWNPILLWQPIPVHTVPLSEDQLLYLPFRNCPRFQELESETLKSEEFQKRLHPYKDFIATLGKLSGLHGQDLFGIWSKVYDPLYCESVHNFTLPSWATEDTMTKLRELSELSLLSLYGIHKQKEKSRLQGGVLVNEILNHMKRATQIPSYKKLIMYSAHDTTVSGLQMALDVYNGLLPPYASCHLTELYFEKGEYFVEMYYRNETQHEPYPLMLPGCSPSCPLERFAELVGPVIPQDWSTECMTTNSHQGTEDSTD
UniProt Q8NF99: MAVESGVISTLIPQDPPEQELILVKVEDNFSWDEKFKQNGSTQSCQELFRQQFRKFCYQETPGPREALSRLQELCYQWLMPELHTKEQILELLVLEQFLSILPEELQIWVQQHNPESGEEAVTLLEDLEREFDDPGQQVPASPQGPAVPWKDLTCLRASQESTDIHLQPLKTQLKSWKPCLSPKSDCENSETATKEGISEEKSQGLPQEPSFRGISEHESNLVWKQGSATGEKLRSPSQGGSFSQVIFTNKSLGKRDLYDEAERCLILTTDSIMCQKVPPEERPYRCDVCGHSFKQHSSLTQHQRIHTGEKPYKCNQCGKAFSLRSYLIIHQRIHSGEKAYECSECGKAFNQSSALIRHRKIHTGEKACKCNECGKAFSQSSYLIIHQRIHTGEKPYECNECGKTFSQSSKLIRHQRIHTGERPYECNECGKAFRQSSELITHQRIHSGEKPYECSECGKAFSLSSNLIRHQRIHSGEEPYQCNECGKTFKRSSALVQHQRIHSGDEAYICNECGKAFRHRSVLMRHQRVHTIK
UniProt Q9ULM6, whole entry: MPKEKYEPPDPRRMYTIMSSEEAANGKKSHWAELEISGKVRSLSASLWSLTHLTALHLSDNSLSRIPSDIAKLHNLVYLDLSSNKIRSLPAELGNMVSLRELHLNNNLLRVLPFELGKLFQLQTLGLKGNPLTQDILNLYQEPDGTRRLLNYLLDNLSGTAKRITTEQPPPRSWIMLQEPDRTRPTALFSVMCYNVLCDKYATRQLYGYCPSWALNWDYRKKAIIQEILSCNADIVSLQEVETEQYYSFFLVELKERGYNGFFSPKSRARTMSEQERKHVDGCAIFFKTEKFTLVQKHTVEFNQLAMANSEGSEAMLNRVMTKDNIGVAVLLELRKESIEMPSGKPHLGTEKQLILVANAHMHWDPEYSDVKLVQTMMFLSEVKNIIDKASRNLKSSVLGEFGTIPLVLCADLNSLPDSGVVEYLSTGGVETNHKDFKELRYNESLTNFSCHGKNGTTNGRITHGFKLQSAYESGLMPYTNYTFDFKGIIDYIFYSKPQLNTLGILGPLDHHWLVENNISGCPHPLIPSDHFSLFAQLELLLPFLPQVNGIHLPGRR
UniProt Q8NFB2: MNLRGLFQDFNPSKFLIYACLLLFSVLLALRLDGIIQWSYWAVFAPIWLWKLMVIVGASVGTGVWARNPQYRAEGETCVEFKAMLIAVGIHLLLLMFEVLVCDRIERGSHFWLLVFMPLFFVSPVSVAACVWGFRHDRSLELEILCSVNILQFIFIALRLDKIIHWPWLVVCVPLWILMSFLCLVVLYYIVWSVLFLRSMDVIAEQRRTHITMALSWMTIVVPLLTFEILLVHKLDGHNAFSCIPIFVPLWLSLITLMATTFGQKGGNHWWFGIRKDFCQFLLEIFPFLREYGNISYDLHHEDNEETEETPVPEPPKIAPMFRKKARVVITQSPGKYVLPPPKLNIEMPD
UniProt Q5MNZ6: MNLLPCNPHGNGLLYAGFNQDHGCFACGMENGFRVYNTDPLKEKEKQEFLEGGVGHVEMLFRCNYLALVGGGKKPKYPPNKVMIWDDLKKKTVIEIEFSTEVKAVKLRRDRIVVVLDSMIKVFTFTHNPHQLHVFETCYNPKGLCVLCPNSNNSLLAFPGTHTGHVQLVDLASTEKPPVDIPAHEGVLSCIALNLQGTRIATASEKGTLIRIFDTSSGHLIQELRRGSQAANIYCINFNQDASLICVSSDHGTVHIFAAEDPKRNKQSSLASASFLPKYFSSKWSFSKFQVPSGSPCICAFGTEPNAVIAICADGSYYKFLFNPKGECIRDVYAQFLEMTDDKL
UniProt P25440: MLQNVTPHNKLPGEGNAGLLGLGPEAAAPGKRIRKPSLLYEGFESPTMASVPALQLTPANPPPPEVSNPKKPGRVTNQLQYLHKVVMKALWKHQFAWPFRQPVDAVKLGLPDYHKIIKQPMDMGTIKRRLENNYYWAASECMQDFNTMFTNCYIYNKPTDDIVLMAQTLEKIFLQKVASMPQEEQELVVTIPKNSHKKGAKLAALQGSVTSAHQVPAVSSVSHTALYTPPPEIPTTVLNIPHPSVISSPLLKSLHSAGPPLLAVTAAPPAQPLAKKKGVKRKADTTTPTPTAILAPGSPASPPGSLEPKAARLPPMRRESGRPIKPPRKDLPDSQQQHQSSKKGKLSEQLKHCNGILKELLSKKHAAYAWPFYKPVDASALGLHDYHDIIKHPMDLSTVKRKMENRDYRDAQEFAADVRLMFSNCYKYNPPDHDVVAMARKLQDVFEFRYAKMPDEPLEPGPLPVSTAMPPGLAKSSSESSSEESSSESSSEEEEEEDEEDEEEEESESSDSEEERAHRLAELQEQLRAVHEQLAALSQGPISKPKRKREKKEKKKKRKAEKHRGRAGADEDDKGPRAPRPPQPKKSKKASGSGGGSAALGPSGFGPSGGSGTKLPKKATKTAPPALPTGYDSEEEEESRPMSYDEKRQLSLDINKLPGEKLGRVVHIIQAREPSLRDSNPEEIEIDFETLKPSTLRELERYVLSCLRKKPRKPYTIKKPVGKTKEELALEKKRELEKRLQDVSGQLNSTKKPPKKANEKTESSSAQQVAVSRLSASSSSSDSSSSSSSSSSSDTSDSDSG

What was measured:
Experiment in all cases: human ORF protein microarray
[1] = target: ACPP (Homo sapiens) (UniProt P15309); conditions: 5' phosphate; Domain array: 20 mM Tris-HCl pH 7.4, 200 mM KCl, 0.2 mM EDTA, 0.05% NP40, 2 ug/ul heparin, overnight 4 C. ORF array: PBS pH 7.0 with RNase inhibitor, 100 ng RNA, 1 h.; recombinant protein; protein details: N-terminal GST-6xHis; label: internal DY647 at G18; letters put together from the description
[2] = target: ZNF397 (Homo sapiens) (UniProt Q8NF99); conditions: 5' phosphate; Domain array: 20 mM Tris-HCl pH 7.4, 200 mM KCl, 0.2 mM EDTA, 0.05% NP40, 2 ug/ul heparin, overnight 4 C. ORF array: PBS pH 7.0 with RNase inhibitor, 100 ng RNA, 1 h.; recombinant protein; protein details: N-terminal GST-6xHis; label: internal DY647 at G18; letters put together from the description
[3] = target: CNOT6 (Homo sapiens) (UniProt Q9ULM6); conditions: 5' phosphate; Domain array: 20 mM Tris-HCl pH 7.4, 200 mM KCl, 0.2 mM EDTA, 0.05% NP40, 2 ug/ul heparin, overnight 4 C. ORF array: PBS pH 7.0 with RNase inhibitor, 100 ng RNA, 1 h.; recombinant protein; protein details: N-terminal GST-6xHis; label: internal DY647 at G18; letters put together from the description
[4] = target: TMEM185A (Homo sapiens) (UniProt Q8NFB2); conditions: 5' phosphate; Domain array: 20 mM Tris-HCl pH 7.4, 200 mM KCl, 0.2 mM EDTA, 0.05% NP40, 2 ug/ul heparin, overnight 4 C. ORF array: PBS pH 7.0 with RNase inhibitor, 100 ng RNA, 1 h.; recombinant protein; protein details: N-terminal GST-6xHis; label: internal DY647 at G18; letters put together from the description
[5] = target: T1, TXNL4B (Homo sapiens) (UniProt Q9NX01); conditions: 5' phosphate; Domain array: 20 mM Tris-HCl pH 7.4, 200 mM KCl, 0.2 mM EDTA, 0.05% NP40, 2 ug/ul heparin, overnight 4 C. ORF array: PBS pH 7.0 with RNase inhibitor, 100 ng RNA, 1 h.; recombinant protein; protein details: N-terminal GST-6xHis; label: internal DY647 at G18; letters put together from the description
T1 sequence (looked up, limits assumed): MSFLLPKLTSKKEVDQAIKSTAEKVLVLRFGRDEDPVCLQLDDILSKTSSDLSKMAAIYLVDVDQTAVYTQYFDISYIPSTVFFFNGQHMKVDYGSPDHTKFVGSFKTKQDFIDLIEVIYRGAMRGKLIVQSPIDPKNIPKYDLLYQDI

[6] = target: T2, C7orf33 (Homo sapiens) (UniProt Q8WU49); conditions: 5' phosphate; Domain array: 20 mM Tris-HCl pH 7.4, 200 mM KCl, 0.2 mM EDTA, 0.05% NP40, 2 ug/ul heparin, overnight 4 C. ORF array: PBS pH 7.0 with RNase inhibitor, 100 ng RNA, 1 h.; recombinant protein; protein details: N-terminal GST-6xHis; label: internal DY647 at G18; letters put together from the description
T2 sequence (looked up, limits assumed): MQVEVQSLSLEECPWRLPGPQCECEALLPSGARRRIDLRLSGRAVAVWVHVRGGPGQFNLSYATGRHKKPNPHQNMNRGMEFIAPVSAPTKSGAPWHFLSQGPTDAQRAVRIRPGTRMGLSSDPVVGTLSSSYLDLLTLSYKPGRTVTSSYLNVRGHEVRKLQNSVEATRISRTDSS

[7] = target: T3, SERPINA10 (Homo sapiens) (UniProt Q9UK55); conditions: 5' phosphate; Domain array: 20 mM Tris-HCl pH 7.4, 200 mM KCl, 0.2 mM EDTA, 0.05% NP40, 2 ug/ul heparin, overnight 4 C. ORF array: PBS pH 7.0 with RNase inhibitor, 100 ng RNA, 1 h.; recombinant protein; protein details: N-terminal GST-6xHis; label: internal DY647 at G18; letters put together from the description
T3 sequence (looked up, limits assumed): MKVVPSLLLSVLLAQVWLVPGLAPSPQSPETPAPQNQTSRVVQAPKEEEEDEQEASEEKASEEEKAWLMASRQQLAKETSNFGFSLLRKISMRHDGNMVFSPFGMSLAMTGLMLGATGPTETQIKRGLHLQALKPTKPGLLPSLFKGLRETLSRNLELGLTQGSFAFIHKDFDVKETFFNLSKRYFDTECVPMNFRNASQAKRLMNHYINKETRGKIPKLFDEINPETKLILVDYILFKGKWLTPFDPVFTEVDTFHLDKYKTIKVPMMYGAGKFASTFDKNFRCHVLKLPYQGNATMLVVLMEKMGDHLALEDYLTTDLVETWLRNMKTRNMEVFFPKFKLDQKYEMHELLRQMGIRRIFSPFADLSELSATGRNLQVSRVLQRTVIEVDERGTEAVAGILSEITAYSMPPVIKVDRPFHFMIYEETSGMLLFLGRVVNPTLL

[8] = target: T4, RNASE1 (Homo sapiens) (UniProt P07998); conditions: 5' phosphate; amino-C6 U at position 18; Domain array: 20 mM Tris-HCl pH 7.4, 200 mM KCl, 0.2 mM EDTA, 0.05% NP40, 2 ug/ul heparin, overnight 4 C. ORF array: PBS pH 7.0 with RNase inhibitor, 100 ng RNA, 1 h.; recombinant protein; protein details: N-terminal GST-6xHis; label: internal Cy5 or DY647
T4 sequence (looked up, limits assumed): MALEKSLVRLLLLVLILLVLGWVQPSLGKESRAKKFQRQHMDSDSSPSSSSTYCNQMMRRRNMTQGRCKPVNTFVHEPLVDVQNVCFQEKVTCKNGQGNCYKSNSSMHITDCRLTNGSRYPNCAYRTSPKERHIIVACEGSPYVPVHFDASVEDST

[9] = target: WDR45L (Homo sapiens) (UniProt Q5MNZ6); conditions: 5' phosphate; amino-C6 U at position 18; Domain array: 20 mM Tris-HCl pH 7.4, 200 mM KCl, 0.2 mM EDTA, 0.05% NP40, 2 ug/ul heparin, overnight 4 C. ORF array: PBS pH 7.0 with RNase inhibitor, 100 ng RNA, 1 h.; recombinant protein; protein details: N-terminal GST-6xHis; label: internal Cy5 or DY647
[10] = target: T5, EDN3 (Homo sapiens) (UniProt P14138); conditions: 5' phosphate; amino-C6 U at position 18; Domain array: 20 mM Tris-HCl pH 7.4, 200 mM KCl, 0.2 mM EDTA, 0.05% NP40, 2 ug/ul heparin, overnight 4 C. ORF array: PBS pH 7.0 with RNase inhibitor, 100 ng RNA, 1 h.; recombinant protein; protein details: N-terminal GST-6xHis; label: internal Cy5 or DY647
T5 sequence (looked up, limits assumed): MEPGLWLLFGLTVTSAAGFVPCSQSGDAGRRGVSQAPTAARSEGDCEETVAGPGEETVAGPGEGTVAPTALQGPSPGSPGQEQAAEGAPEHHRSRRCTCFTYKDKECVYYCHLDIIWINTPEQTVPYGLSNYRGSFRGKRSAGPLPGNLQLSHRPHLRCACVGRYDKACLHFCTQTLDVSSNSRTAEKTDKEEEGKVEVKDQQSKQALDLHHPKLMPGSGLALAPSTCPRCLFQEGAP

[11] = target: T6, CNN3 (Homo sapiens) (UniProt Q15417); conditions: 5' phosphate; amino-C6 U at position 18; Domain array: 20 mM Tris-HCl pH 7.4, 200 mM KCl, 0.2 mM EDTA, 0.05% NP40, 2 ug/ul heparin, overnight 4 C. ORF array: PBS pH 7.0 with RNase inhibitor, 100 ng RNA, 1 h.; recombinant protein; protein details: N-terminal GST-6xHis; label: internal Cy5 or DY647
T6 sequence (looked up, limits assumed): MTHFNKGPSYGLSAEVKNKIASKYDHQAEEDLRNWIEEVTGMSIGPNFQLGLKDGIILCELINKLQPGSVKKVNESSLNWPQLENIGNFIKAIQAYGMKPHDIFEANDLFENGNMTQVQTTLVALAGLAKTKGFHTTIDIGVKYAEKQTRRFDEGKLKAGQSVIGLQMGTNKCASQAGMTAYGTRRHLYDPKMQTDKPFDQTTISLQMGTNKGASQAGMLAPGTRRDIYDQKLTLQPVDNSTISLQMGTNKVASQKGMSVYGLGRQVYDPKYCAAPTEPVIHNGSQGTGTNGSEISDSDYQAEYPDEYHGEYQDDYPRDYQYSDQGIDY

[12] = target: T7, SLC30A6 (Homo sapiens) (UniProt Q6NXT4); conditions: 5' phosphate; amino-C6 U at position 18; Domain array: 20 mM Tris-HCl pH 7.4, 200 mM KCl, 0.2 mM EDTA, 0.05% NP40, 2 ug/ul heparin, overnight 4 C. ORF array: PBS pH 7.0 with RNase inhibitor, 100 ng RNA, 1 h.; recombinant protein; protein details: N-terminal GST-6xHis; label: internal Cy5 or DY647
T7 sequence (looked up, limits assumed): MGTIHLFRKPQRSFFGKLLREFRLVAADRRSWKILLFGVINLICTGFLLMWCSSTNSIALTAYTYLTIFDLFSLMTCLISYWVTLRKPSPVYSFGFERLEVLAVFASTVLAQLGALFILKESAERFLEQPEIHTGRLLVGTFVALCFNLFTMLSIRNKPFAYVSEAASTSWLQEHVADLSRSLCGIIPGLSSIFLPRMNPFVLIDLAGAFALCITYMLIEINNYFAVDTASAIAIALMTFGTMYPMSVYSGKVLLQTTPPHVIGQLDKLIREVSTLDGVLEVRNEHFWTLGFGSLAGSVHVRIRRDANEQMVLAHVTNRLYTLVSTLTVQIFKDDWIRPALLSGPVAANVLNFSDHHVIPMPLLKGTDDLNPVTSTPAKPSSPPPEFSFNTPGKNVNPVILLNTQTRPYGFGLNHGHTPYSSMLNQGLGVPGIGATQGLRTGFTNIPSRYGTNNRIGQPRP

[13] = target: BRD2 (Homo sapiens) (UniProt P25440); conditions: 5' phosphate; amino-C6 U at position 18; Domain array: 20 mM Tris-HCl pH 7.4, 200 mM KCl, 0.2 mM EDTA, 0.05% NP40, 2 ug/ul heparin, overnight 4 C. ORF array: PBS pH 7.0 with RNase inhibitor, 100 ng RNA, 1 h.; recombinant protein; protein details: N-terminal GST-6xHis; label: internal Cy5 or DY647

Measured: binding result

CAGUGCAAUGAUGAAAGGGCAU [miR-130b (internal labeling)]
binds: [1] | [2] | [3]

UAGCUUAUCAGACUGAUGUUGA [miR-21 (internal labeling)]
binds: [4] | [5] | [6] | [7]

UGAGGUAGUAGGUUGUGUGGUU [let-7b (internal labeling)]
binds: [8] | [9] | [10] | [11] | [12] | [13]
